Measured values from PMC8571338.
These are yes or no findings as the source states them, for the method shown. In cells and extracts the contact can be indirect. Some binding calls cover weakened binding; strength is not graded here.

The chains behind the UniProt entries cited, without tags or fusion partners.
UniProt P61289: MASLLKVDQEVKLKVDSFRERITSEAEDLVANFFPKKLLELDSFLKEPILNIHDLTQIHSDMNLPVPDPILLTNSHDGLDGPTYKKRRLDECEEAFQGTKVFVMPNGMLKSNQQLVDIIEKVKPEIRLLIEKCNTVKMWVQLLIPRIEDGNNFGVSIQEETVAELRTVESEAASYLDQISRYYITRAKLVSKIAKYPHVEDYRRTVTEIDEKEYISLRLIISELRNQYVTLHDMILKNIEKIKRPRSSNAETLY
UniProt O00327: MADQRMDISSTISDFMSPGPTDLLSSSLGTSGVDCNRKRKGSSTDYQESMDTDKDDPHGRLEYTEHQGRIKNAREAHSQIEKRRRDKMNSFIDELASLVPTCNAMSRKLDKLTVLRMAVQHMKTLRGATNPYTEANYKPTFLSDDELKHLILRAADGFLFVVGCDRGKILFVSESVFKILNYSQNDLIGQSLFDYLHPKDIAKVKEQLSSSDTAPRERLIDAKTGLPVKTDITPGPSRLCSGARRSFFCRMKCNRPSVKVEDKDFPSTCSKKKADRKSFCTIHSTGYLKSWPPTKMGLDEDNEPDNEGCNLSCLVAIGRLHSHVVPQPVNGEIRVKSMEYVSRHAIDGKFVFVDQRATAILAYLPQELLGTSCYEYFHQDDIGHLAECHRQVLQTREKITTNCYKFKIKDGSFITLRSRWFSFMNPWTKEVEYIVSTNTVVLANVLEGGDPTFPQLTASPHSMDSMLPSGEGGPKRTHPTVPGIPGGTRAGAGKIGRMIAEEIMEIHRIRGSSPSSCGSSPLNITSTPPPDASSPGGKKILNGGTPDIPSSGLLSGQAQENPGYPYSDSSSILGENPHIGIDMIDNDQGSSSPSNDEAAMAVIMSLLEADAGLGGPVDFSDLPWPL

Assays:
[1] = target: Flag-REGγ (UniProt P61289); assay: co-IP; Flag-REGγ and HA-BMAL1 transiently co-transfected into 293T cells (2 μg each, 48 h); IP lysis buffer (50 mM Tris-HCl pH 7.5, 1 M EDTA as printed, 150 mM NaCl, 10% glycerol, 1% Nonidet P-40); lysates incubated with HA or Flag beads at 4 °C overnight; western blot
[2] = target: HA-BMAL1 (human) (UniProt O00327); assay: as above

binding [1]	binding [2]	Substance
binds		HA-BMAL1 (from UniProt O00327 1-626)
	binds	Flag-REGγ (from UniProt P61289 1-254)
